From paper PMC7145699, “Structural insights into target DNA recognition by R2R3-MYB transcription factors”
Substitutions are numbered along the chain they refer to. The comparison behind a weaker result is the experiment's own reference, which may not be listed here. Protein sequences can lack the tags named with them. For some of these results: Construct, isoform or probe ends are uncertain for at least one entry.

Assays:
[1] = target: T1, WER 12-130 (WER-R2R3) (Arabidopsis) (UniProt Q9SEI0); assay: EMSA; conditions: 5 mM H2O2; EMSA: 150 mM NaCl, 20 mM Tris-HCl pH 8.0, on ice 1 h, 0.1 uM DNA, 6% native PAGE 0.5x TBE; recombinant protein; residues 12-130; protein details: 6xHis-SUMO removed by Ulp1
T1 sequence (looked up): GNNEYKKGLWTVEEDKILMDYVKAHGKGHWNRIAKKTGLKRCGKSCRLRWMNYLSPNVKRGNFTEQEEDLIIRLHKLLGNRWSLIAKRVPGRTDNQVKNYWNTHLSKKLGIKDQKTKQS

WER K109A (Arabidopsis) = target: T2, WER K109A (Arabidopsis) (UniProt Q9SEI0); assay: ITC; conditions: ITC: 150 mM NaCl, 20 mM HEPES pH 7.5, 25 C, 400 uM protein into 20 uM DNA; recombinant protein; residues 12-130; protein details: 6xHis-SUMO removed by Ulp1
T2 sequence (looked up): T1 sequence (looked up) with K98A

WER N110A (Arabidopsis) = target: T3, WER N110A (Arabidopsis) (UniProt Q9SEI0); assay: ITC; conditions: ITC: 150 mM NaCl, 20 mM HEPES pH 7.5, 25 C, 400 uM protein into 20 uM DNA; recombinant protein; residues 12-130; protein details: 6xHis-SUMO removed by Ulp1
T3 sequence (looked up): T1 sequence (looked up) with N99A

WER N106A (Arabidopsis) = target: T4, WER N106A (Arabidopsis) (UniProt Q9SEI0); assay: ITC; conditions: ITC: 150 mM NaCl, 20 mM HEPES pH 7.5, 25 C, 400 uM protein into 20 uM DNA; recombinant protein; residues 12-130; protein details: 6xHis-SUMO removed by Ulp1
T4 sequence (looked up): T1 sequence (looked up) with N95A

Measured: binding result

AAATTCTCCAACCGCATTTTC (double strand) [GL2 promoter WER target DNA]
binds more weakly: all assays above
